# Patent publication US4162316A (priority 1975, dated 1979)
# Tested on: female mice of ddN strain
# Experiment: animal or person
# Details: Mus musculus, po, 0.5 h, read-out: Analgesic activity ED50-value, Phenylquinone method (p.o.)
smiles,measurement,value
"CN1CC[C@]23c4c5ccc(O)c4O[C@H]2[C@@H](O)C=C[C@H]3[C@H]1C5.Cl [Reference compound D, Morphine hydrochloride]",ED50,4.2 mg/kg
